The target in the assay is FLAG-metap2. Description: co-immunoprecipitation, anti-FLAG IP from co-transfected HEK-293T cells, immunoblot for HA-tagged CASTOR1. A general note: Immunoblotting shows a protein as a band on a membrane.

The values that follow come from US20190025321A1.

These are yes or no findings as the source states them, for the method shown. In cells and extracts the contact can be indirect.

B1: recombinant CASTOR1 (Cellular Arginine Sensor for mTORC1; protein encoded by the GATS protein-like 3 gene) (protein, human, UniProt Q8WTX7 1-329, looked up, not shown: small tags and cut ends)
chain: MELHILEHRVRVLSVARPGLWLYTHPLIKLLFLPRRSRCKFFSLTETPEDYTLMVDEEGFKELPPSEFLQVAEATWLVLNVSSHSGAAVQAAGVTKIARSVIAPLAEHHVSVLMLSTYQTDFILVREQDLSVVIHTLAQEFDIYREVGGEPVPVTRDDSSNGFPRTQHGPSPTVHPIQSPQNRFCVLTLDPETLPAIATTLIDVLFYSHSTPKEAASSSPEPSSITFFAFSLIEGYISIVMDAETQKKFPSDLLLTSSSGELWRMVRIGGQPLGFDECGIVAQIAGPLAAADISAYYISTFNFDHALVPEDGIGSVIEVLQRRQEGLAS
Take B1: the binding result is on record as “no binding”.
